Values of other authors, collected in patent US11447501B2, “Biphenyl-containing diarylpyrimido compounds, pharmaceutically-acceptable salts thereof, composition and preparation thereof” (Fudan University, priority 2019, dated 2022).
At least one compound was matched to its structure with a doubt left.

Conditions: clinical use; cited from earlier work

In the case of `Cc1cc(/C=C/C#N)cc(C)c1Nc1ccnc(Nc2ccc(C#N)cc2)n1` [RPV, rilpivirine], the response rate is listed as 27.3%.
